PubChem BioAssay AID493014 (National Center for Advancing Translational Sciences (NCATS), 2011)
In all, about 340,000 compounds went through this assay and about 170 (0.05%) were called active. The shares of active, inactive and inconclusive entries below differ from those in the screen. The call rests on the fitted dose curve; in most records, active means well fitted inhibition curve with a large enough effect in the signal ratio, with a control signal flat (not every such curve was filed as active); inconclusive means small, poorly fitted or top-dose-only effect, or effect the other way, or a change in a side signal; inactive means flat fitted curve, though single readings scatter; the % refers to the signal ratio. Potencies of inconclusive entries are doubtful fits and often do not repeat.

Assay: qHTS Assay to Find Inhibitors of Chronic Active B-Cell Receptor Signaling;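 on activity change, negative = inhibition: plate controls were basal doxycycline-induced cells for no effect and cells given 10 µM MG132 for full effect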
Details: ABC-DLBCL IkBa-CBG/CBR reporter, luminescence ratio (green luciferase fused to IkBa over red control in TMD8 lymphoma cells), 4 h; activity change, negative = inhibition: at 46.1 µM (top of the series)
How it was run: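 Concentration-response series (up to 46 uM) were applied to TMD8 dual-reporter cells for 4 h at 37C with doxycycline. Green/red ratio, after filter-overlap correction, defined %Activity; red signal alone was normalised to basal cells and zero luminescence.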
Potency means the concentration at half of the fitted maximal effect.

Row | SMILES | activity change, negative = inhibition | Potency
1 | CCC(CC)C(=O)c1c[nH]c(C(=O)NCCc2ccccn2)c1 | inconclusive: 6.56% | 
2 | CCOc1ccccc1Nc1ncnc2c1cnn2-c1ccccc1 | inconclusive: -0.72% | 
3 | Cc1ccc(OCC(=O)N2N=C(c3cccnc3)CC2(O)C(F)(F)F)cc1C (stereo not given) | inconclusive: -19.2% | 
4 | CCCCN1C(=N)N([C@@H](CCC)CN2CCC[C@H]2CN2C(N)=NC[C@H]2CC(C)C)C[C@H]1Cc1ccccc1 | inactive | 
5 | CSC1=NC(C)(C)C=C(/C=C/c2ccc(Cl)cc2Cl)N1 |  | inconclusive: 7.94 µM [falling, partial curve]
6 | CCOC(=O)c1c(N)c2cc([N+](=O)[O-])cnc2n1C | inconclusive: 10.9% | 
7 | CCC(=O)NC(=S)Nc1ccc(NC(=O)COc2ccc(Cl)c(C)c2)cc1 | inactive | 
8 | O=C(/C=C/c1ccc2c(c1)OCO2)c1ccc(F)cc1 | inactive | 
9 | CC(=O)N1CC(=O)N=C1SCC(=O)Nc1nc(C)c(-c2ccccc2)s1 |  | inconclusive: 31.6 µM [falling, single point]
10 | Cn1c(=O)c2c(nc(NCCCO)n2CCc2ccccc2)n(C)c1=O | inactive | 
11 | CC(C)Sc1ncnc2c1oc1ccccc12 | inconclusive: 5.88% | 
12 | CCCOc1ccc(-c2nc(=S)[nH][nH]2)cc1 |  | inconclusive: 6.51 µM [rising, single point]
13 | Cc1noc(C)c1C(=O)Nc1nc2ccccc2s1 |  | inconclusive: 18.4 µM [falling, single point]
14 | NC(=O)c1cccn1Cc1cccc(Cl)c1 | inconclusive: 8.47% | 
15 | COc1cc(CC(=O)NCc2cccs2)cc(OC)c1OC |  | inconclusive: 6.51 µM [falling, single point]
16 | CC(C(=O)Nc1ccc2c(c1)OCCO2)N(C)Cc1c(F)cccc1Cl (stereo not given) | inconclusive: 4.37% | 
17 | Cc1cc(N2C(=O)C(O)=C(C(=O)c3ccc(C)o3)C2c2cccc(Oc3ccccc3)c2)no1 (stereo not given) | inconclusive: 3.72% | 
18 | Cc1ccccc1N=C1NN=C(c2ccccc2F)CS1 |  | inconclusive: 20.6 µM [falling, partial curve]
19 | OCC[C@H]1C[C@@H](O)[C@H](O)[C@]2(OCCc3ccccc32)O1 |  | inconclusive: 23.1 µM [falling, partial curve, poor fit]
20 | CC1CC(C)CN(S(=O)(=O)c2ccc3c(c2)oc(=O)n3CC(=O)N(C)Cc2ccccc2)C1 (stereo not given) | inactive | 
21 | CN(C)S(=O)(=O)c1ccc(NC(=O)CCCNC(=O)c2ccc(Cl)cc2)cc1 | inconclusive: -10.5% | 
22 | CCCS(=O)(=O)c1c(S(=O)(=O)CCC)c2c3ccccc3ccn2c1C(=O)OC |  | inconclusive: 0.517 µM [rising, full curve]
23 | COc1ccc(C(=O)/C=C2/c3ccccc3CC(C)(C)N2C)cc1 |  | inconclusive: 14.1 µM [falling, partial curve]
24 | COC(=O)CSc1nnc(C2COc3ccccc3O2)n1-c1ccccc1 (stereo not given) | inconclusive: 3.06% | 
25 | COc1ccccc1CNC(=O)CCC1N=C2c3ccccc3N=C(SCc3ccc(C)cc3)N2C1=O (stereo not given) |  | inconclusive: 35.5 µM [rising, single point]
26 | CCc1ccc(C(=O)Nc2ccc(OC)c(S(=O)(=O)N3CCOCC3)c2)cc1 | inactive | 
27 | COC(=O)c1c(NC(=O)Nc2ccc(Cl)cc2)sc(C)c1C | inconclusive: 0% | 

Row | SMILES | activity change, negative = inhibition | Potency
28 | Cc1ccccc1NS(=O)(=O)c1cc2c3c(c1)CC(=O)N3CCC2 | inconclusive: 7.35% | 
29 | Cc1ccc(-c2cc(N)n[nH]2)cc1 |  | inconclusive: 6.51 µM [falling, partial curve, poor fit]
30 | Cc1ccc(C2C(C#N)=C(N)SC(N)=C2C#N)cc1 | inconclusive: 3.4% | 
31 | O=c1cc(CSc2ccccc2)nc(-c2ccccc2)[nH]1 |  | inconclusive: 35.5 µM [falling, single point]
32 | O=C(C1CCN(S(=O)(=O)c2ccccc2F)CC1)N1CCc2ccccc21 | inconclusive: -0.889% | 
33 | COc1ccc2[nH]c(=O)c(CN(Cc3nnnn3Cc3ccco3)C3CCCCC3)cc2c1 | inconclusive: -10.2% | 
34 | Cc1cccnc1NC(=O)CCCc1c[nH]c2ccccc12 |  | inconclusive: 12.6 µM [falling, partial curve]
35 | Clc1ccccc1-c1nnc2n1CCCCC2 | inconclusive: -0.0994% | 
36 | CCN(CC)CCCN(C(=O)c1cccs1)c1nc(-c2ccc(OC)cc2)cs1 | inconclusive: -11.4% | 
37 | COc1ccc(-c2csc(NC(=O)c3cc(C)on3)c2C#N)cc1OC | inconclusive: 6.48% | 
38 | c1ccc2c(NC3=NCCCCS3)cccc2c1 |  | inconclusive: 18.4 µM [falling, partial curve, poor fit]
39 | CC(C)(C)NS(=O)(=O)c1ccc(N2C(=O)c3ccccc3C2=O)cc1 | inconclusive: 5.41% | 
40 | Cc1ccccc1CNC(=O)CCC(=O)N1CCOc2ccc(Cl)cc21 | inconclusive: -0.395% | 
41 | CCC(C)Sc1cccc(-c2nc3cnccn3c2NC2CCCCC2)c1 (stereo not given) | inconclusive: 6.4% | 
42 | COc1cc(OC)c2cc(C(=O)N/N=C/c3cccc(OC)c3O)[nH]c2c1 | inconclusive: -7.17% | 
43 | N#C/C(=C(/O)COC(=O)c1ccc(C#N)cc1)c1nc2ccccc2s1 |  | inconclusive: 18.4 µM [falling, partial curve]
44 | COc1ccc2nc(N(Cc3cccnc3)C(=O)C3CCCCC3)sc2c1 | inconclusive: 26.5% | 
45 | O=C(CCCC(=O)N(CC(=O)NC1CCCCC1)c1ccc(F)cc1)Nc1ccccn1 |  | inconclusive: 3.16 µM [falling, partial curve, poor fit]
46 | Fc1ccc(/C=N/NC2=Nc3cccc4cccc2c34)cc1 |  | inconclusive: 29.1 µM [falling, single point]
47 | CSCC(O)Cn1[nH]c(=O)c2cc(Cl)c(Cl)cc2c1=O (stereo not given) |  | inconclusive: 35.5 µM [falling, single point]
48 | O=C(Nc1ccc(Cl)cc1C(=O)NCc1cccnc1)c1ccc(Cl)cc1Cl | inconclusive: 13.3% | 
49 | O=C(CCSc1ccccc1Cl)Nc1cccc([N+](=O)[O-])c1 | inconclusive: 0.156% | 
50 | CCOc1ccc(OCC)c(S(=O)(=O)NCCCN2CCOCC2)c1 |  | inconclusive: 6.51 µM [falling, partial curve]
51 | O=C(CC1C(=O)NCCN1Cc1ccc(-c2ccccc2)cc1)NCC1CC1 (stereo not given) | inactive | 
52 | CCC(C)(C)C1CCC(NC(=O)N2CCN(c3ccccc3O)CC2)CC1 (stereo not given) | inactive | 
53 | O=C(NCc1nc(-c2ccc(C(F)(F)F)cc2)no1)c1cccs1 | inconclusive: -0.512% | 
54 | O=C(CSC1=NCCN1)NC1CCCCCC1 | inconclusive: -24.7% | 

Single values from the list.
Under Potency, N#C/C(=C(/O)COC(=O)c1ccc(C#N)cc1)c1nc2ccccc2s1 is listed with inconclusive: 18.4 µM [falling, partial curve]
Under Potency, Fc1ccc(/C=N/NC2=Nc3cccc4cccc2c34)cc1 is listed with inconclusive: 29.1 µM [falling, single point]
Under activity change, negative = inhibition, Cc1ccc(C2C(C#N)=C(N)SC(N)=C2C#N)cc1 is listed with inconclusive: 3.4%

(continued)

Row | SMILES | activity change, negative = inhibition | Potency
55 | O=C(CSc1nccn1Cc1ccccc1)Nc1ccccc1 | inactive | 
56 | COc1ccc(CC(=O)Nc2ccccc2N2CCCC2)cc1 | inactive | 
57 | CCN(CC)S(=O)(=O)c1ccc(N2CCOCC2)c(NC(=O)c2cc(C)cc(C)c2)c1 | inactive | 
58 | CCOc1ccccc1NC(=O)c1cc(SC)ccc1Cl | inactive | 
59 | CCOC(=O)c1c(NC(=O)C2=C(C)NC(=S)NC2c2ccc(F)cc2)sc(C)c1C (stereo not given) | inconclusive: 4.78% | 
60 | COc1ccc(OC)c(NC(=O)c2cc(OC(C)=O)cc(C(=O)Nc3cc(OC)ccc3OC)c2)c1 |  | inconclusive: 12.6 µM [falling, partial curve]
61 | Cc1cccc(OCC(=O)NNC(=O)c2cc3ccccc3oc2=O)c1 | inconclusive: 20.7% | 
62 | C=CCOC1=CS(=O)(=O)N(Cc2ccc(Br)cc2)c2ccc(Br)cc21 | inactive | 
63 | O=C1OC(c2cccs2)=N/C1=C\c1ccc(-c2ccccc2Cl)o1 | inactive | 
64 | COc1ccc(Nc2nc(N3CCN(S(C)(=O)=O)CC3)nc3ccccc23)c(OC)c1 | inconclusive: -0.863% | 
65 | Cc1c(C)c2c(OCC(=O)N[C@@H](C)C(=O)O)cc3c(c2oc1=O)CCC(C)(C)O3 | inactive | 
66 | CC/C(=N/O)C(=O)c1ccc(Br)cc1 | inactive | 
67 | O=C(Nc1nnc(-c2cccnc2)s1)c1cccs1 |  | inconclusive: 11.2 µM [rising, partial curve]
68 | O=C(O)CCSSCCC(=O)O | inconclusive: -8.12% | 
69 | O=[N+]([O-])c1ccc(-c2ccc(/C=N/Nc3nc(N4CCCCC4)nc(N4CCCCC4)n3)o2)cc1 |  | inconclusive: 1.58 µM [falling, partial curve, poor fit]
70 | Cc1noc(C)c1CSc1ncnc2sc3c(c12)CCC(C)C3 (stereo not given) | inconclusive: -0.508% | 
71 | CC(=O)Nc1ccc(S(=O)(=O)C(C#N)c2nc3ccccc3nc2NCCCO)cc1 (stereo not given) | inconclusive: 3.29% | 
72 | Cc1cc2ncc(-c3ccc(Cl)cc3)cn2n1 | inconclusive: 0.994% | 
73 | CCN1C(=O)c2cccc3c(NC(=O)c4ccc(S(=O)(=O)N(C)C)cc4)ccc1c23 |  | inconclusive: 29.1 µM [falling, single point]
74 | Cc1ccc2[nH]c3c(N4CCN(Cc5ccccc5)CC4)ncnc3c2c1 | inconclusive: -4.03% | 
75 | Cc1ccc(NS(=O)(=O)c2ccc3c(c2)c(=O)n(C)c(=O)n3C)cc1F |  | inconclusive: 6.51 µM [falling, single point]
76 | Cc1ccc2c(c1)C1CN(C)CCC1N2C(=O)COc1ccccc1F (stereo not given) | inconclusive: -3.22% | 
77 | CCOC(=O)c1c(C)[nH]c(C)c1C(=O)COC(=O)/C=C/c1ccc(OC)cc1 | inconclusive: 1.01% | 
78 | CC1(C)Cc2c(c(N3CCOCC3)nc3sc4c(NCC5CCCO5)nnnc4c23)CS1 (stereo not given) |  | inconclusive: 5.62 µM [rising, full curve]
79 | O=C(N[C@H]1CC1c1ccccc1)c1ccc([N+](=O)[O-])cc1 (stereo not given in full) | inconclusive: -11.6% | 
80 | CC#CC[N+](C)(C)CCCCCCCCCCCC | inconclusive: -2.11% | 
